Test results as given in paper PMC4725338.
No constants are given. Whether binding was seen depends on the method and setting. Binding seen in cells or lysates may run through a third protein. Some binding calls cover weakened binding; strength is not graded here. Tags and fused reporters may be left off the sequences shown.

Protein sequences, listed by entry. Tags and fused reporters are not part of them. Lines headed by an entry give the natural chain unless they say otherwise; changes in a name come on top.
UniProt P05556: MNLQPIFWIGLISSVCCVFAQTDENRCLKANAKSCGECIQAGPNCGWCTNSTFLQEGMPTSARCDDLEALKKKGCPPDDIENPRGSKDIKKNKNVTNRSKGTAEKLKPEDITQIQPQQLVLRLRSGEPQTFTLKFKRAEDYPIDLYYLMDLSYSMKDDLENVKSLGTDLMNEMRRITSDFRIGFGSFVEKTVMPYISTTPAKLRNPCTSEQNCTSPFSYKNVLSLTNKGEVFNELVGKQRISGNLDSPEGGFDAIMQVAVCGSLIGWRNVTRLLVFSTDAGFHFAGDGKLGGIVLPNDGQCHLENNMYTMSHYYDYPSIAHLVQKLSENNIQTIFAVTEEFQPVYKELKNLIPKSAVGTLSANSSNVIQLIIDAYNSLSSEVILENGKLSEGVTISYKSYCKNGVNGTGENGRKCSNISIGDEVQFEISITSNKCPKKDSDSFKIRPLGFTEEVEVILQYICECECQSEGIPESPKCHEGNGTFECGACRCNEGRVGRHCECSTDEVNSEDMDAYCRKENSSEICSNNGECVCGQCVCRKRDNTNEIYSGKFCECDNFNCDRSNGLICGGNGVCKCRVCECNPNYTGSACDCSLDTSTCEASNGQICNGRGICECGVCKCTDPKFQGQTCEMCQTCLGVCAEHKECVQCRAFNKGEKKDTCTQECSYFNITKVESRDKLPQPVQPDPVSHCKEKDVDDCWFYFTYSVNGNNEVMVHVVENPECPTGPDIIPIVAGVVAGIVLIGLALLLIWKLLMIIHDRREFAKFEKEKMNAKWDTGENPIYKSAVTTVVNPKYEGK

Molecular target: T1, His-Myc-tagged Crim1-FL (full-length mouse cysteine-rich motor neuron 1) (mouse) (UniProt Q9JLL0)
T1 sequence: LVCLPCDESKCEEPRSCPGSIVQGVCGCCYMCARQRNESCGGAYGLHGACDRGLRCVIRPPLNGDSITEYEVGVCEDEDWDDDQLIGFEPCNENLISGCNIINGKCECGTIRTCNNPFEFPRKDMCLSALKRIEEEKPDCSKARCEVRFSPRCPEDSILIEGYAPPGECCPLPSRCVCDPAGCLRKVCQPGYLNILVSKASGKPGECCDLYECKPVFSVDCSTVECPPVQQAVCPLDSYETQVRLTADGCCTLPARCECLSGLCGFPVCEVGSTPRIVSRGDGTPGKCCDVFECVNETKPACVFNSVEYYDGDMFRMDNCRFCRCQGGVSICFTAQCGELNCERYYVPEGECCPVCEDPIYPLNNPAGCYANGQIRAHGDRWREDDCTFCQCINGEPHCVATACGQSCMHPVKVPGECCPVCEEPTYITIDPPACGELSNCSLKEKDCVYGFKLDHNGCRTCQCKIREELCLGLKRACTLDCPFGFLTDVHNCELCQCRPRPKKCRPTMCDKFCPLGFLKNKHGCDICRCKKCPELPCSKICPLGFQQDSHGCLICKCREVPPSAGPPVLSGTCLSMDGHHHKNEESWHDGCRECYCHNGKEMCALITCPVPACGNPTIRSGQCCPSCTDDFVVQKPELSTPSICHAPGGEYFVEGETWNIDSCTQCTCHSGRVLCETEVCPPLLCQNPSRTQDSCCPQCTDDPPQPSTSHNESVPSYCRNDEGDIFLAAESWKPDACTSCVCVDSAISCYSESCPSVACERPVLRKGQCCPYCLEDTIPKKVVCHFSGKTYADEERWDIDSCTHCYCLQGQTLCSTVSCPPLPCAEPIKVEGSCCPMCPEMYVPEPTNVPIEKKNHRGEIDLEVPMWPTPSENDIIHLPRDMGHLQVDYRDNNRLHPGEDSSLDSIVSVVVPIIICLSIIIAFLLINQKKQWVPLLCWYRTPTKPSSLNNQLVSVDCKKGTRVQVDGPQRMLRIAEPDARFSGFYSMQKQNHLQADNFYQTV
Assay: co-IP; C-terminal His- and Myc-tagged mouse Crim1 expressed in HEK 293T cells for 48 h; lysate (50 mM NaH2PO4, 300 mM NaCl, 10 mM imidazole, 0.5% Triton X-100, pH 8.0) incubated with Ni-NTA resin at 4°C for 2 h to precipitate His-Myc-Crim1; blotted with anti-Myc or anti-β1 integrin; empty vector as negative control

β1 integrin (from UniProt P05556 21-798) (receptor)
binding: binds
